# The list shows a part of the results. Most of these values are background signal.
# B1: 4-99.3 (protein)
# chain 1: QVQLQESGPGLVKPSETLSLTCAVSGYSISSGYYWGWIRQPPGKGLEYIGYISGSWGKSYYKPSLKSRVTISKDTSKNQFSLTLSSVTAADTAVYYCARRLEYVGFDVWGPGVLVTVSS
# chain 2: QAAPTQPPSVSGSPGQSVTISCTGTSSDIGYYNAVSWYQQHPGKAPKLMIYEVSKRPSGVSDRFSGSKSGNTASLTISGLQAEDEADYYCSSYAGSNTYIFGSGTRLTVL
# B2: 3S41.3 (protein)
# chain 1: EVQLVESGGGLVQPGGSLRLSCATSGFTFSNYWMYWFRQAPGKGLEWVSTISGSSSNTYYPDSVKGRFTISRDNAKNTLYLQINSLRAEDTAVYYCARRHDHSSGWAFDYWGQGVLVTVSS
# chain 2: EIVMTQSPATLSLSPGERATLSCRASQSVGSNLAWYQQKPGQAPKLLIYDASSRATGIPDRFSGSGSGTDFTLTVSSLEPEDVGVYYCQQYNNWKTFGQGTKVEIK
# Legend:
# Test in all cases: fluorescence intensity of antibody binding to polysaccharide-coupled beads; higher = stronger binding
# [1] = molecular target: pneumococcal polysaccharide Pn6A
# [2] = molecular target: pneumococcal polysaccharide Pn6B
# [3] = molecular target: pneumococcal polysaccharide Pn6C
# [4] = molecular target: pneumococcal polysaccharide Pn6D
# [5] = molecular target: pneumococcal polysaccharide Pn7A
# [6] = molecular target: pneumococcal polysaccharide Pn7B
# [7] = molecular target: pneumococcal polysaccharide Pn7C
# [8] = molecular target: pneumococcal polysaccharide Pn7F
# [9] = molecular target: pneumococcal polysaccharide Pn8
# [10] = molecular target: pneumococcal polysaccharide Pn9A
# [11] = molecular target: pneumococcal polysaccharide Pn9L
# [12] = molecular target: pneumococcal polysaccharide Pn9N
# [13] = molecular target: pneumococcal polysaccharide Pn9V
# [14] = molecular target: pneumococcal polysaccharide C-Poly-1
# [15] = molecular target: pneumococcal polysaccharide C-Poly-2
# [16] = molecular target: pneumococcal polysaccharide Pn1
# [17] = molecular target: pneumococcal polysaccharide Pn10A
# [18] = molecular target: pneumococcal polysaccharide Pn10B
# [19] = molecular target: pneumococcal polysaccharide Pn10C
# [20] = molecular target: pneumococcal polysaccharide Pn10F
# [21] = molecular target: pneumococcal polysaccharide Pn11A
# [22] = antibody concentration 81.7561 ng/mL
# [23] = antibody concentration 437.17 ng/mL
# [24] = antibody concentration 2337.65 ng/mL
# [25] = antibody concentration 12500 ng/mL
# [26] = antibody concentration 0.1 ng/mL
# [27] = antibody concentration 0.534724 ng/mL
# [28] = antibody concentration 2.8593 ng/mL
# [29] = antibody concentration 15.2894 ng/mL
binder,measurement,setting,value
B1,fluorescence intensity,[1]; [22],20.8 MFI
same,fluorescence intensity,[1]; [23],25.5 MFI
same,fluorescence intensity,[1]; [24],28.8 MFI
same,fluorescence intensity,[1]; [25],57.8 MFI
same,fluorescence intensity,[2]; [26],18.5 MFI
same,fluorescence intensity,[2]; [27],19.2 MFI
same,fluorescence intensity,[2]; [28],17.8 MFI
same,fluorescence intensity,[2]; [29],20 MFI
same,fluorescence intensity,[2]; [22],17 MFI
same,fluorescence intensity,[2]; [23],22 MFI
same,fluorescence intensity,[2]; [24],25.2 MFI
same,fluorescence intensity,[2]; [25],62.5 MFI
same,fluorescence intensity,[3]; [26],22 MFI
same,fluorescence intensity,[3]; [27],54 MFI
same,fluorescence intensity,[3]; [28],53 MFI
same,fluorescence intensity,[3]; [29],77 MFI
same,fluorescence intensity,[3]; [22],66.5 MFI
same,fluorescence intensity,[3]; [23],76 MFI
same,fluorescence intensity,[3]; [24],92.2 MFI
same,fluorescence intensity,[3]; [25],112 MFI
same,fluorescence intensity,[4]; [26],19 MFI
same,fluorescence intensity,[4]; [27],15 MFI
same,fluorescence intensity,[4]; [28],17.5 MFI
same,fluorescence intensity,[4]; [29],15.2 MFI
same,fluorescence intensity,[4]; [22],16 MFI
same,fluorescence intensity,[4]; [23],17.8 MFI
same,fluorescence intensity,[4]; [24],23.8 MFI
same,fluorescence intensity,[4]; [25],37.5 MFI
same,fluorescence intensity,[5]; [26],21.5 MFI
same,fluorescence intensity,[5]; [27],18.5 MFI
same,fluorescence intensity,[5]; [28],19 MFI
same,fluorescence intensity,[5]; [29],19.8 MFI
same,fluorescence intensity,[5]; [22],20.2 MFI
same,fluorescence intensity,[5]; [23],23 MFI
same,fluorescence intensity,[5]; [24],93 MFI
same,fluorescence intensity,[5]; [25],694 MFI
same,fluorescence intensity,[6]; [26],17 MFI
same,fluorescence intensity,[6]; [27],16 MFI
same,fluorescence intensity,[6]; [28],14 MFI
same,fluorescence intensity,[6]; [29],15.5 MFI
same,fluorescence intensity,[6]; [22],15.5 MFI
same,fluorescence intensity,[6]; [23],16.5 MFI
same,fluorescence intensity,[6]; [24],28.5 MFI
same,fluorescence intensity,[6]; [25],96 MFI
same,fluorescence intensity,[7]; [26],17 MFI
same,fluorescence intensity,[7]; [27],15 MFI
same,fluorescence intensity,[7]; [28],15.5 MFI
same,fluorescence intensity,[7]; [29],17 MFI
same,fluorescence intensity,[7]; [22],16.2 MFI
same,fluorescence intensity,[7]; [23],16 MFI
same,fluorescence intensity,[7]; [24],25.8 MFI
same,fluorescence intensity,[7]; [25],93.8 MFI
same,fluorescence intensity,[8]; [26],14 MFI
same,fluorescence intensity,[8]; [27],14 MFI
same,fluorescence intensity,[8]; [28],14.5 MFI
same,fluorescence intensity,[8]; [29],14 MFI
same,fluorescence intensity,[8]; [22],16 MFI
same,fluorescence intensity,[8]; [23],20.5 MFI
same,fluorescence intensity,[8]; [24],43.8 MFI
same,fluorescence intensity,[8]; [25],402 MFI
same,fluorescence intensity,[9]; [26],20 MFI
same,fluorescence intensity,[9]; [27],19.5 MFI
same,fluorescence intensity,[9]; [28],20.5 MFI
same,fluorescence intensity,[9]; [29],21 MFI
same,fluorescence intensity,[9]; [22],21.5 MFI
same,fluorescence intensity,[9]; [23],26.8 MFI
same,fluorescence intensity,[9]; [24],31.8 MFI
same,fluorescence intensity,[9]; [25],77 MFI
same,fluorescence intensity,[10]; [26],19 MFI
same,fluorescence intensity,[10]; [27],18.5 MFI
same,fluorescence intensity,[10]; [28],18 MFI
same,fluorescence intensity,[10]; [29],20.5 MFI
same,fluorescence intensity,[10]; [22],19 MFI
same,fluorescence intensity,[10]; [23],20 MFI
same,fluorescence intensity,[10]; [24],33.8 MFI
same,fluorescence intensity,[10]; [25],97.8 MFI
same,fluorescence intensity,[11]; [26],17.5 MFI
same,fluorescence intensity,[11]; [27],16.2 MFI
same,fluorescence intensity,[11]; [28],15 MFI
same,fluorescence intensity,[11]; [29],17.5 MFI
same,fluorescence intensity,[11]; [22],17 MFI
same,fluorescence intensity,[11]; [23],18.8 MFI
same,fluorescence intensity,[11]; [24],25 MFI
same,fluorescence intensity,[11]; [25],73.5 MFI
same,fluorescence intensity,[12]; [26],17.5 MFI
same,fluorescence intensity,[12]; [27],14.8 MFI
same,fluorescence intensity,[12]; [28],15 MFI
same,fluorescence intensity,[12]; [29],15.2 MFI
same,fluorescence intensity,[12]; [22],14.5 MFI
same,fluorescence intensity,[12]; [23],17 MFI
same,fluorescence intensity,[12]; [24],28.5 MFI
same,fluorescence intensity,[12]; [25],80 MFI
same,fluorescence intensity,[13]; [26],14.8 MFI
same,fluorescence intensity,[13]; [27],14 MFI
same,fluorescence intensity,[13]; [28],13.2 MFI
same,fluorescence intensity,[13]; [29],14 MFI
same,fluorescence intensity,[13]; [22],15.2 MFI
same,fluorescence intensity,[13]; [23],16 MFI
same,fluorescence intensity,[13]; [24],18 MFI
same,fluorescence intensity,[13]; [25],37 MFI
B2,fluorescence intensity,[14]; [26],24.2 MFI
same,fluorescence intensity,[14]; [27],27 MFI
same,fluorescence intensity,[14]; [28],25 MFI
same,fluorescence intensity,[14]; [29],25.5 MFI
same,fluorescence intensity,[14]; [22],32.5 MFI
same,fluorescence intensity,[14]; [23],116 MFI
same,fluorescence intensity,[14]; [24],1150 MFI
same,fluorescence intensity,[14]; [25],2210 MFI
same,fluorescence intensity,[15]; [26],20.5 MFI
same,fluorescence intensity,[15]; [27],19.5 MFI
same,fluorescence intensity,[15]; [28],19.5 MFI
same,fluorescence intensity,[15]; [29],20.5 MFI
same,fluorescence intensity,[15]; [22],25 MFI
same,fluorescence intensity,[15]; [23],102 MFI
same,fluorescence intensity,[15]; [24],1130 MFI
same,fluorescence intensity,[15]; [25],2030 MFI
same,fluorescence intensity,[16]; [26],12.8 MFI
same,fluorescence intensity,[16]; [27],12.5 MFI
same,fluorescence intensity,[16]; [28],14.5 MFI
same,fluorescence intensity,[16]; [29],14.5 MFI
same,fluorescence intensity,[16]; [22],15.5 MFI
same,fluorescence intensity,[16]; [23],25.5 MFI
same,fluorescence intensity,[16]; [24],121 MFI
same,fluorescence intensity,[16]; [25],388 MFI
same,fluorescence intensity,[17]; [26],25 MFI
same,fluorescence intensity,[17]; [27],26 MFI
same,fluorescence intensity,[17]; [28],24.5 MFI
same,fluorescence intensity,[17]; [29],25 MFI
same,fluorescence intensity,[17]; [22],26 MFI
same,fluorescence intensity,[17]; [23],37.2 MFI
same,fluorescence intensity,[17]; [24],120 MFI
same,fluorescence intensity,[17]; [25],256 MFI
same,fluorescence intensity,[18]; [26],23.5 MFI
same,fluorescence intensity,[18]; [27],23 MFI
same,fluorescence intensity,[18]; [28],20 MFI
same,fluorescence intensity,[18]; [29],20 MFI
same,fluorescence intensity,[18]; [22],23.5 MFI
same,fluorescence intensity,[18]; [23],24.2 MFI
same,fluorescence intensity,[18]; [24],35.8 MFI
same,fluorescence intensity,[18]; [25],82.8 MFI
same,fluorescence intensity,[19]; [26],14.8 MFI
same,fluorescence intensity,[19]; [27],15.5 MFI
same,fluorescence intensity,[19]; [28],15.2 MFI
same,fluorescence intensity,[19]; [29],14.5 MFI
same,fluorescence intensity,[19]; [22],16.5 MFI
same,fluorescence intensity,[19]; [23],16.2 MFI
same,fluorescence intensity,[19]; [24],26 MFI
same,fluorescence intensity,[19]; [25],58.8 MFI
same,fluorescence intensity,[20]; [26],19.2 MFI
same,fluorescence intensity,[20]; [27],20 MFI
same,fluorescence intensity,[20]; [28],20.5 MFI
same,fluorescence intensity,[20]; [29],19 MFI
same,fluorescence intensity,[20]; [22],20 MFI
same,fluorescence intensity,[20]; [23],20 MFI
same,fluorescence intensity,[20]; [24],22.5 MFI
same,fluorescence intensity,[20]; [25],36.5 MFI
same,fluorescence intensity,[21]; [26],25.5 MFI
same,fluorescence intensity,[21]; [27],25.8 MFI
same,fluorescence intensity,[21]; [28],29 MFI
same,fluorescence intensity,[21]; [29],26.8 MFI

# Copied from above for reference:
binder,measurement,setting,value
B1,fluorescence intensity,[5]; [25],694 MFI
same,fluorescence intensity,[6]; [26],17 MFI
same,fluorescence intensity,[6]; [27],16 MFI
same,fluorescence intensity,[6]; [28],14 MFI
same,fluorescence intensity,[6]; [29],15.5 MFI
same,fluorescence intensity,[6]; [22],15.5 MFI
same,fluorescence intensity,[6]; [23],16.5 MFI
same,fluorescence intensity,[6]; [24],28.5 MFI
same,fluorescence intensity,[6]; [25],96 MFI
same,fluorescence intensity,[7]; [26],17 MFI
same,fluorescence intensity,[7]; [27],15 MFI
same,fluorescence intensity,[7]; [28],15.5 MFI
same,fluorescence intensity,[7]; [29],17 MFI
same,fluorescence intensity,[7]; [22],16.2 MFI
same,fluorescence intensity,[7]; [23],16 MFI
same,fluorescence intensity,[7]; [24],25.8 MFI
same,fluorescence intensity,[7]; [25],93.8 MFI
same,fluorescence intensity,[8]; [26],14 MFI
same,fluorescence intensity,[8]; [27],14 MFI
same,fluorescence intensity,[8]; [28],14.5 MFI
same,fluorescence intensity,[8]; [29],14 MFI
same,fluorescence intensity,[8]; [22],16 MFI
same,fluorescence intensity,[8]; [23],20.5 MFI
same,fluorescence intensity,[8]; [24],43.8 MFI
same,fluorescence intensity,[8]; [25],402 MFI
same,fluorescence intensity,[9]; [26],20 MFI
same,fluorescence intensity,[9]; [27],19.5 MFI
same,fluorescence intensity,[9]; [28],20.5 MFI
same,fluorescence intensity,[9]; [29],21 MFI
same,fluorescence intensity,[9]; [22],21.5 MFI
same,fluorescence intensity,[9]; [23],26.8 MFI
same,fluorescence intensity,[9]; [24],31.8 MFI
same,fluorescence intensity,[9]; [25],77 MFI
same,fluorescence intensity,[10]; [26],19 MFI
same,fluorescence intensity,[10]; [27],18.5 MFI
same,fluorescence intensity,[10]; [28],18 MFI
same,fluorescence intensity,[10]; [29],20.5 MFI
same,fluorescence intensity,[10]; [22],19 MFI
same,fluorescence intensity,[10]; [23],20 MFI
same,fluorescence intensity,[10]; [24],33.8 MFI
same,fluorescence intensity,[10]; [25],97.8 MFI
same,fluorescence intensity,[11]; [26],17.5 MFI
same,fluorescence intensity,[11]; [27],16.2 MFI

# From the supplement of paper PMC11438910
